T1: canonical FNDC4 protein (fibronectin III domain containing 4), Myc-FLAG-tagged (human) (UniProt Q9H6D8)
T1 sequence: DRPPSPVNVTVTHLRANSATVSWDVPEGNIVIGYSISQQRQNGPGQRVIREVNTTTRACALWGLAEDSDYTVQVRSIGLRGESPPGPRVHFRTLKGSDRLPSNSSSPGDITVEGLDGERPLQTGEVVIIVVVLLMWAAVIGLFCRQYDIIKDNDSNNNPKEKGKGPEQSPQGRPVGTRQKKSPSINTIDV

Chains of the proteins cited; added tags and fusions are not shown. Lines headed by an entry give the natural chain unless they say otherwise; changes in a name come on top. Residues count along the entry.
UniProt P08758: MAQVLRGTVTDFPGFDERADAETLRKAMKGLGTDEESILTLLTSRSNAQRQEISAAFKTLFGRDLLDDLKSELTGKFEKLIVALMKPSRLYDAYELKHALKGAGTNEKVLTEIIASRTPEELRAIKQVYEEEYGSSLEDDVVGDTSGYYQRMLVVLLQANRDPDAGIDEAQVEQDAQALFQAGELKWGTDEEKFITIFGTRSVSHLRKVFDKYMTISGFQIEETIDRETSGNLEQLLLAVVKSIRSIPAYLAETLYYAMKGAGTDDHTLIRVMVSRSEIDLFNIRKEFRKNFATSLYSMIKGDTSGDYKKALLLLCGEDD
UniProt Q03135: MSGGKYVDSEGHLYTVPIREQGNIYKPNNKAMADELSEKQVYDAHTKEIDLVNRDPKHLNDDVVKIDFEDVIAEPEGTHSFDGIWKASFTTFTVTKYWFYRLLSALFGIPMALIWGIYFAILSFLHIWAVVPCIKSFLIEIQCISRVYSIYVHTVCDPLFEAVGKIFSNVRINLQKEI
UniProt P14625, residues 22-803: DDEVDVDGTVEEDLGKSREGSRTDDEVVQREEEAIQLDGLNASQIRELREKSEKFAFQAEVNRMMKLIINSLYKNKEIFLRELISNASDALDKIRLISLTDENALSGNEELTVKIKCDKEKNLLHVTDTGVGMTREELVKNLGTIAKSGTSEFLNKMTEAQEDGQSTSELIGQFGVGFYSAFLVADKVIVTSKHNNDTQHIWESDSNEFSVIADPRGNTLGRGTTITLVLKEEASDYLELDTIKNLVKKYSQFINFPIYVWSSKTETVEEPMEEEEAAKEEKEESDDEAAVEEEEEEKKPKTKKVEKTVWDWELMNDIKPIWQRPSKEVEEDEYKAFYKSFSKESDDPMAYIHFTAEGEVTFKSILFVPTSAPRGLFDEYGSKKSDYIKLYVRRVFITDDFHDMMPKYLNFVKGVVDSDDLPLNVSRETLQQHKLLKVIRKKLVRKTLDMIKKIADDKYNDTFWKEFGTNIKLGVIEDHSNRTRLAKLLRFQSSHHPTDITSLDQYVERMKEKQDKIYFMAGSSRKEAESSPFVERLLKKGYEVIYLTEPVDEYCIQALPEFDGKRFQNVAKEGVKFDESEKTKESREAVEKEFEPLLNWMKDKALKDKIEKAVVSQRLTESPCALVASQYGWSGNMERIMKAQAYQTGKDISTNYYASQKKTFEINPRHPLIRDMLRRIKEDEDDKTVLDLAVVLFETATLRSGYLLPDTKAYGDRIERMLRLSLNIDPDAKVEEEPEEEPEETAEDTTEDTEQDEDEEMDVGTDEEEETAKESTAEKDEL
UniProt P05556: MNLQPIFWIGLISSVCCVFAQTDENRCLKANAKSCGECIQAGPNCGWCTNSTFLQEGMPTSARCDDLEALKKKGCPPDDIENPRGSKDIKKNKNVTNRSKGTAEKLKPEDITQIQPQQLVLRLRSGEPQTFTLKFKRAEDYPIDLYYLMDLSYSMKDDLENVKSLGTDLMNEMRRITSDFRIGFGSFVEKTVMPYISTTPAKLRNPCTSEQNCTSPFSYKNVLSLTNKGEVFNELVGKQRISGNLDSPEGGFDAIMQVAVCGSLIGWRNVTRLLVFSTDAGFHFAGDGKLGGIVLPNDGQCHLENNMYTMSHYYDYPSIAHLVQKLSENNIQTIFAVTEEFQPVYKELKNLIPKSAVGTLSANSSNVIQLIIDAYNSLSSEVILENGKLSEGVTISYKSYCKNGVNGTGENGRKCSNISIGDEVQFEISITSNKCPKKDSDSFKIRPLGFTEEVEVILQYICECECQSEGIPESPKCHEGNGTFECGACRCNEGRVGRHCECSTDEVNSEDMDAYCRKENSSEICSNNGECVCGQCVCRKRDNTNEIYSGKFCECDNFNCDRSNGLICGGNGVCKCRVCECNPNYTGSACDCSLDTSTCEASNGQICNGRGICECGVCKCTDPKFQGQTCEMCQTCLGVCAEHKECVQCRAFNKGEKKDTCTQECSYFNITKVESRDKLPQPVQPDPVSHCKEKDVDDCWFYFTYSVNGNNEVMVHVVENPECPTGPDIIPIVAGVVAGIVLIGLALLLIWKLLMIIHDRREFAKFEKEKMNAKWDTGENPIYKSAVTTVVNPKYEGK

B1: REEP3 (protein, UniProt Q6NUK4 1-255)
chain: MVSWMISRAVVLVFGMLYPAYYSYKAVKTKNVKEYVRWMMYWIVFALYTVIETVADQTVAWFPLYYELKIAFVIWLLSPYTKGASLIYRKFLHPLLSSKEREIDDYIVQAKERGYETMVNFGRQGLNLAATAAVTAAVKSQGAITERLRSFSMHDLTTIQGDEPVGQRPYQPLPEAKKKSKPAPSESAGYGIPLKDGDEKTDEEAEGPYSDNEMLTHKGLRRSQSMKSVKTTKGRKEVRYGSLKYKVKKRPQVYF
B2: GHITM (protein, UniProt Q9H3K2 46-345)
chain: ATKTRIGIRRGRTGQELKEAALEPSMEKIFKIDQMGRWFVAGGAAVGLGALCYYGLGLSNEIGAIEKAVIWPQYVKDRIHSTYMYLAGSIGLTALSAIAISRTPVLMNFMMRGSWVTIGVTFAAMVGAGMLVRSIPYDQSPGPKHLAWLLHSGVMGAVVAPLTILGGPLLIRAAWYTAGIVGGLSTVAMCAPSEKFLNMGAPLGVGLGLVFVSSLGSMFLPPTTVAGATLYSVAMYGGLVLFSMFLLYDTQKVIKRAEVSPMYGVQKYDPINSMLSIYMDTLNIFMRVATMLATGGNRKK

These are yes or no findings as the source states them, for the method shown. Binding seen in cells or lysates may run through a third protein. Here binding means that the protein was enriched with, or labelled near, the bait; the list need not be complete. Tags and fused reporters may be left off the sequences shown.

This test addresses T1, canonical FNDC4 protein (fibronectin III domain containing 4), Myc-FLAG-tagged (human). As to the kind of experiment: affinity purification with mass spectrometry; Myc-FLAG-tagged FNDC4 (canonical or truncated) or empty vector overexpressed in iPSC-derived NPCs; anti-MYC magnetic beads; IP samples separated by SDS-PAGE, gel sections cut for MS; proteins also found in the empty vector or truncated FNDC4 samples filtered out.
On to ANXA5 (from UniProt P08758 1-320), for which the binding result is given as “binds”.
To CAV1 (from UniProt Q03135 1-178) belongs “binds”; to HSP90B1 (from UniProt P14625 22-803), “binds”.
To “integrin subunit β-1 (ITGB1) (from UniProt P05556 21-798)” belongs “binds”; to B1, “binds”.
As to B2, the binding result is “binds”.

Source of the values: PMC12948423.
